Values from PubChem BioAssay AID1053208 (Peter MacCallum Cancer Centre, 2014)
Shown is one part, drawn at random, of about 17,000 reagents tested. Over the whole deposit, 788 (4.7%) got an active call. 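Calls rest on z-score classes alone; an extra cut-off of viability at most 70% of control was not applied to them.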 A number with no mark means an inactive call. Further read-outs or replicates are left out here.

Purpose: 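Genes whose silencing cuts survival of bone tumour cells only with doxorubicin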 (primary screen)
Cells: mouse osteosarcoma cells, early-passage culture from an engineered mouse model of fibroblastic bone tumour
Reagent: siRNA pool against mouse genes, 40 nM
Time to read-out: about 120 h (48 h before drug, then 72 h with drug)
Treatment: doxorubicin 100 nM for 72 h, roughly 30-40% inhibitory dose
Read-out: 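Luminescent ATP signal taken as viability with or without 100 nM doxorubicin for 72 h; mean of two wells set against non-targeting siRNA and turned into robust z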
Reading the numbers: viability z-score with doxorubicin: higher = more viable cells under doxorubicin; viability z-score without drug: higher = more viable cells with knock-down alone
Rule for the call: 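Called active if knock-down leaves viability unchanged without drug (z within -2 to 2) but lowers it with doxorubicin (z at or under -2)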

Silencing of Ovol1 came out at: combined z-score class no change with or without drug; viability z-score with doxorubicin -1.8; viability z-score without drug -0.51.
After knock-down of Rnf152, the screen gave combined z-score class no change with or without drug; viability z-score with doxorubicin 0.67; viability z-score without drug -0.51.
Against Txndc9, the entry reads combined z-score class no change with or without drug; viability z-score with doxorubicin -0.11; viability z-score without drug -1.35.
Silencing of Cyp2d34 gave: combined z-score class no change with or without drug; viability z-score with doxorubicin -0.34; viability z-score without drug -0.17.
Silencing of Galnt11 came out at: combined z-score class no change with or without drug; viability z-score with doxorubicin 0.22; viability z-score without drug -0.34.
With knock-down of Ott the results were combined z-score class no change with or without drug; viability z-score with doxorubicin -0.22; viability z-score without drug -0.34.
Depletion of Twist1 came out at: combined z-score class no change with or without drug; viability z-score with doxorubicin 0.34; viability z-score without drug -0.34.
Against Fastk, the values are combined z-score class no change with or without drug; viability z-score with doxorubicin -1.01; viability z-score without drug -0.84.
For Pabir1 the deposit lists combined z-score class no change with or without drug; viability z-score with doxorubicin -1.24; viability z-score without drug -0.51.

4 entries already listed, arranged by “viability z-score with doxorubicin”, lowest first.
Cyp2d34: combined z-score class = no change with or without drug; viability z-score with doxorubicin = -0.34; viability z-score without drug = -0.17
Ott: combined z-score class = no change with or without drug; viability z-score with doxorubicin = -0.22; viability z-score without drug = -0.34
Galnt11: combined z-score class = no change with or without drug; viability z-score with doxorubicin = 0.22; viability z-score without drug = -0.34
Twist1: combined z-score class = no change with or without drug; viability z-score with doxorubicin = 0.34; viability z-score without drug = -0.34

Additional records follow:
Vmn1r211 gave combined z-score class no change with or without drug; viability z-score with doxorubicin 0.45; viability z-score without drug 0.17.
Against Gulp1, the entry reads combined z-score class no change with or without drug; viability z-score with doxorubicin 1.01; viability z-score without drug 0.17.
Against Il12b the deposit lists combined z-score class no change with or without drug; viability z-score with doxorubicin 1.8; viability z-score without drug 1.69.
Against Or10ag2, the entry reads combined z-score class no change with or without drug; viability z-score with doxorubicin -0.34; viability z-score without drug 1.18.
Depletion of Slc66a3 came out at: combined z-score class high cell count without drug only; viability z-score with doxorubicin -0.34; viability z-score without drug 2.02.
After knock-down of Anks1, the record shows combined z-score class no change with or without drug; viability z-score with doxorubicin 0.9; viability z-score without drug 0.17.
Pdcd1lg2 gave combined z-score class high cell count without drug only; viability z-score with doxorubicin 1.69; viability z-score without drug 2.02.
Silencing of Ppp1r10 resulted in: combined z-score class no change with or without drug; viability z-score with doxorubicin 0.56; viability z-score without drug 0.51.
For Kif1a, the values are combined z-score class no change with or without drug; viability z-score with doxorubicin 0.67; viability z-score without drug 1.52.
Against Cntrob the deposit lists combined z-score class no change with or without drug; viability z-score with doxorubicin -0.67; viability z-score without drug 0.17.
Against Uhrf1, the values are combined z-score class no change with or without drug; viability z-score with doxorubicin 0; viability z-score without drug -0.84.
With knock-down of Or4f60, the record shows combined z-score class no change with or without drug; viability z-score with doxorubicin 1.12; viability z-score without drug -0.17.
Aqp1 showed combined z-score class no change with or without drug; viability z-score with doxorubicin 0.56; viability z-score without drug -0.17.
Knock-down of Hpgds came out at: combined z-score class no change with or without drug; viability z-score with doxorubicin 1.35; viability z-score without drug 0.
With knock-down of Hunk, the screen gave combined z-score class no change with or without drug; viability z-score with doxorubicin 0.34; viability z-score without drug 1.85.
Ckmt2 scored combined z-score class no change with or without drug; viability z-score with doxorubicin 0.22; viability z-score without drug -0.84.
Prss50 scored combined z-score class low cell count with doxorubicin only (active); viability z-score with doxorubicin -2.25; viability z-score without drug -1.18.
For Atp5mg the deposit lists combined z-score class no change with or without drug; viability z-score with doxorubicin -0.79; viability z-score without drug -1.01.
With knock-down of Ndufb11, the record shows combined z-score class low cell count without drug only; viability z-score with doxorubicin 0.67; viability z-score without drug -2.02.
